PubChem BioAssay AID1671195, Yale University, 2021
This is an unselected part of about 22,000 reagents. About 1,510 of all reagents (6.9%) count as active. 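Active includes knockdowns raising or lowering LDL uptake; positive z-scores mean more uptake, negative mean less.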 Reagent sequences are not shown.

- Aim: 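Genes whose knockdown alters LDL uptake in liver cancer cells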 (primary screen)
- Cells: human Huh7 hepatoma cells
- Reagent: siRNA pool against human genes, 18 nM
- Timing: about 2 to 2.5 days of knockdown, then 8 h LDL uptake
- Treatment: DiI-labelled LDL at 30 µg/ml for 8 h, in lipoprotein-deficient serum medium
- Detection: 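Fluorescent LDL signal imaged in cells, scaled to the plate median, robust z-score for each replicate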
- Reading the numbers: robust z-score: higher = more LDL uptake after knockdown
- Hit rule: 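Active when two or more replicates show a robust z-score above 2 or below -2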

no.	gene	PubChem SID	robust z-score, replicate 1	robust z-score, replicate 2	robust z-score, replicate 3	outcome
1	LOC388628 (retired record)	SID442885377	1.52	1.14	1.94	inactive
2	PTBP2	SID442899578	-0.789	-0.398	-0.734	inactive
3	RPS6P1	SID442891733	0.34	0.121	0.291	inactive
4	STX8	SID442887357	0.651	1.03	1.11	inactive
5	USH1G	SID442887033	0.578	0.81	1.61	inactive
6	HP1BP3	SID442886848	1.31	1.36	0.475	inactive
7	LOXHD1	SID442894621	-0.402	-0.418	0.571	inactive
8	ERBB2	SID442897282	-0.0475	-0.409	-0.648	inactive
9	SUZ12	SID442890636	0.379	-0.0812	0.87	inactive
10	ANKLE1	SID442888260	0.771	0.751	0.741	inactive
11	GNAI2	SID442899265	-0.504	-0.63	-0.663	inactive
12	GLRX3	SID442897453	-0.745	-0.405	-0.0115	inactive
13	CRTAM	SID442895913	-0.14	-0.436	-0.0819	inactive
14	PRM3	SID442901508	-1.21	-0.858	-0.662	inactive
15	LMAN2L	SID442892962	-0.438	0.13	0.618	inactive
16	TMEFF1	SID442890673	1.78	-0.743	0.113	inactive
17	HSFX1	SID442884077	2.45	1.54	2.03	active
18	CLEC17A	SID442898515	-0.518	-0.629	-0.377	inactive
19	FAM151B	SID442895924	0.0595	-0.237	-0.484	inactive
20	CPNE5	SID442897739	-0.534	0.165	-0.889	inactive
21	GIMAP5	SID442890281	1.72	-1.03	0.625	inactive
22	SLC22A5	SID442885989	0.812	1.44	1.65	inactive
23	CLCN2	SID442883547	3.34	1.67	3.12	active
24	RELL2	SID442894174	-0.0436	-0.257	0.195	inactive
25	RLBP1	SID442883309	2.96	3.4	3.64	active
26	PPP1R10	SID442902409	-1.29	-0.886	-1.03	inactive
27	LINC00301	SID442890434	0.392	0.382	0.481	inactive
28	ARL9	SID442894482	-0.903	0.823	-0.124	inactive
29	SPDYE4	SID442887096	0.808	1.2	0.955	inactive
30	CLIC4	SID442888802	0.275	0.612	1.09	inactive
31	UGT1A3	SID442902008	-1.22	-0.886	-0.885	inactive
32	P2RX3	SID442902162	-0.958	-1.19	-0.917	inactive
33	TAS2R42	SID442891364	0.653	0.231	0.00314	inactive
34	MRTFB	SID442894471	0.0264	-0.0449	-0.183	inactive
35	LOC389438 (retired record)	SID442884886	1.58	1.98	1.87	inactive
36	COX7B	SID442890346	0.0936	0.44	0.759	inactive
37	MT1B	SID442900721	-0.433	-1.45	-0.51	inactive
38	DUSP2	SID442891791	0.111	0.745	-0.122	inactive
39	ZFPL1	SID442895676	-0.355	-0.0686	-0.157	inactive
40	RSKR	SID442903940	-1.32	-1.41	-1.59	inactive
41	DCAF10	SID442896008	-0.237	0.00522	-0.455	inactive
42	CD68	SID442894655	-0.296	0.548	-0.514	inactive
43	TTLL8	SID442890731	0.34	0.822	-0.0329	inactive
44	BLOC1S6	SID442885592	1.22	1.88	1.25	inactive
45	RPL7AP27	SID442897499	-0.269	-0.19	-0.72	inactive
46	LOC400712 (retired record)	SID442889245	0.519	0.232	1.02	inactive
47	LOC440191 (retired record)	SID442894499	0.21	-0.202	-0.219	inactive
48	DLK1	SID442904572	-1.57	-1.48	-2.12	inactive
49	LNP1	SID442891299	0.405	0.0554	0.449	inactive
50	CPLX3	SID442895896	-0.328	0.165	-0.489	inactive
51	ATP9A	SID442891219	0.566	0.0441	0.338	inactive
52	ATOH1	SID442895426	-0.0372	-0.241	-0.224	inactive
53	PSD2	SID442893181	1.1	-0.533	-0.328	inactive
54	LOC388959 (retired record)	SID442885660	1.99	1.15	1.1	inactive
55	FRRS1L	SID442886731	0.455	1.11	1.67	inactive
56	PKD2L2	SID442884686	1.89	2.27	1.77	inactive
57	KHDC4	SID442901004	-0.942	-0.81	-0.761	inactive
58	MRPS6	SID442891642	0.2	0.345	0.238	inactive
59	SLC38A4	SID442893185	0.667	-0.425	-0.00404	inactive
60	PRPF19	SID442883495	2.88	2.88	2.61	active
61	POLRMT	SID442897390	-0.379	-0.588	-0.176	inactive
62	LOC440310 (retired record)	SID442888319	0.824	0.478	0.926	inactive
63	HLF	SID442902028	-0.196	-1.91	-0.893	inactive
64	TMBIM6	SID442902926	-1.96	-1.19	-0.382	inactive
65	PPARG	SID442891952	1.02	-0.248	-0.0972	inactive
66	LOC399713 (retired record)	SID442893078	0.353	-0.00267	-0.0782	inactive
67	LINC01144	SID442894674	-0.138	-0.03	-0.101	inactive
68	C6orf15	SID442895568	-1.39	1.53	-0.68	inactive

Entries listed above called active (4):
gene	PubChem SID	robust z-score, replicate 1	robust z-score, replicate 2	robust z-score, replicate 3	outcome
HSFX1	SID442884077	2.45	1.54	2.03	active
CLCN2	SID442883547	3.34	1.67	3.12	active
RLBP1	SID442883309	2.96	3.4	3.64	active
PRPF19	SID442883495	2.88	2.88	2.61	active
